Results: paper PMC11350265
These are yes or no findings as the source states them, for the method shown. Binding seen in cells or lysates may run through a third protein. Some binding calls cover weakened binding; strength is not graded here.

By UniProt entry, the sequences of proteins in these tests, tags left out.
UniProt O14686: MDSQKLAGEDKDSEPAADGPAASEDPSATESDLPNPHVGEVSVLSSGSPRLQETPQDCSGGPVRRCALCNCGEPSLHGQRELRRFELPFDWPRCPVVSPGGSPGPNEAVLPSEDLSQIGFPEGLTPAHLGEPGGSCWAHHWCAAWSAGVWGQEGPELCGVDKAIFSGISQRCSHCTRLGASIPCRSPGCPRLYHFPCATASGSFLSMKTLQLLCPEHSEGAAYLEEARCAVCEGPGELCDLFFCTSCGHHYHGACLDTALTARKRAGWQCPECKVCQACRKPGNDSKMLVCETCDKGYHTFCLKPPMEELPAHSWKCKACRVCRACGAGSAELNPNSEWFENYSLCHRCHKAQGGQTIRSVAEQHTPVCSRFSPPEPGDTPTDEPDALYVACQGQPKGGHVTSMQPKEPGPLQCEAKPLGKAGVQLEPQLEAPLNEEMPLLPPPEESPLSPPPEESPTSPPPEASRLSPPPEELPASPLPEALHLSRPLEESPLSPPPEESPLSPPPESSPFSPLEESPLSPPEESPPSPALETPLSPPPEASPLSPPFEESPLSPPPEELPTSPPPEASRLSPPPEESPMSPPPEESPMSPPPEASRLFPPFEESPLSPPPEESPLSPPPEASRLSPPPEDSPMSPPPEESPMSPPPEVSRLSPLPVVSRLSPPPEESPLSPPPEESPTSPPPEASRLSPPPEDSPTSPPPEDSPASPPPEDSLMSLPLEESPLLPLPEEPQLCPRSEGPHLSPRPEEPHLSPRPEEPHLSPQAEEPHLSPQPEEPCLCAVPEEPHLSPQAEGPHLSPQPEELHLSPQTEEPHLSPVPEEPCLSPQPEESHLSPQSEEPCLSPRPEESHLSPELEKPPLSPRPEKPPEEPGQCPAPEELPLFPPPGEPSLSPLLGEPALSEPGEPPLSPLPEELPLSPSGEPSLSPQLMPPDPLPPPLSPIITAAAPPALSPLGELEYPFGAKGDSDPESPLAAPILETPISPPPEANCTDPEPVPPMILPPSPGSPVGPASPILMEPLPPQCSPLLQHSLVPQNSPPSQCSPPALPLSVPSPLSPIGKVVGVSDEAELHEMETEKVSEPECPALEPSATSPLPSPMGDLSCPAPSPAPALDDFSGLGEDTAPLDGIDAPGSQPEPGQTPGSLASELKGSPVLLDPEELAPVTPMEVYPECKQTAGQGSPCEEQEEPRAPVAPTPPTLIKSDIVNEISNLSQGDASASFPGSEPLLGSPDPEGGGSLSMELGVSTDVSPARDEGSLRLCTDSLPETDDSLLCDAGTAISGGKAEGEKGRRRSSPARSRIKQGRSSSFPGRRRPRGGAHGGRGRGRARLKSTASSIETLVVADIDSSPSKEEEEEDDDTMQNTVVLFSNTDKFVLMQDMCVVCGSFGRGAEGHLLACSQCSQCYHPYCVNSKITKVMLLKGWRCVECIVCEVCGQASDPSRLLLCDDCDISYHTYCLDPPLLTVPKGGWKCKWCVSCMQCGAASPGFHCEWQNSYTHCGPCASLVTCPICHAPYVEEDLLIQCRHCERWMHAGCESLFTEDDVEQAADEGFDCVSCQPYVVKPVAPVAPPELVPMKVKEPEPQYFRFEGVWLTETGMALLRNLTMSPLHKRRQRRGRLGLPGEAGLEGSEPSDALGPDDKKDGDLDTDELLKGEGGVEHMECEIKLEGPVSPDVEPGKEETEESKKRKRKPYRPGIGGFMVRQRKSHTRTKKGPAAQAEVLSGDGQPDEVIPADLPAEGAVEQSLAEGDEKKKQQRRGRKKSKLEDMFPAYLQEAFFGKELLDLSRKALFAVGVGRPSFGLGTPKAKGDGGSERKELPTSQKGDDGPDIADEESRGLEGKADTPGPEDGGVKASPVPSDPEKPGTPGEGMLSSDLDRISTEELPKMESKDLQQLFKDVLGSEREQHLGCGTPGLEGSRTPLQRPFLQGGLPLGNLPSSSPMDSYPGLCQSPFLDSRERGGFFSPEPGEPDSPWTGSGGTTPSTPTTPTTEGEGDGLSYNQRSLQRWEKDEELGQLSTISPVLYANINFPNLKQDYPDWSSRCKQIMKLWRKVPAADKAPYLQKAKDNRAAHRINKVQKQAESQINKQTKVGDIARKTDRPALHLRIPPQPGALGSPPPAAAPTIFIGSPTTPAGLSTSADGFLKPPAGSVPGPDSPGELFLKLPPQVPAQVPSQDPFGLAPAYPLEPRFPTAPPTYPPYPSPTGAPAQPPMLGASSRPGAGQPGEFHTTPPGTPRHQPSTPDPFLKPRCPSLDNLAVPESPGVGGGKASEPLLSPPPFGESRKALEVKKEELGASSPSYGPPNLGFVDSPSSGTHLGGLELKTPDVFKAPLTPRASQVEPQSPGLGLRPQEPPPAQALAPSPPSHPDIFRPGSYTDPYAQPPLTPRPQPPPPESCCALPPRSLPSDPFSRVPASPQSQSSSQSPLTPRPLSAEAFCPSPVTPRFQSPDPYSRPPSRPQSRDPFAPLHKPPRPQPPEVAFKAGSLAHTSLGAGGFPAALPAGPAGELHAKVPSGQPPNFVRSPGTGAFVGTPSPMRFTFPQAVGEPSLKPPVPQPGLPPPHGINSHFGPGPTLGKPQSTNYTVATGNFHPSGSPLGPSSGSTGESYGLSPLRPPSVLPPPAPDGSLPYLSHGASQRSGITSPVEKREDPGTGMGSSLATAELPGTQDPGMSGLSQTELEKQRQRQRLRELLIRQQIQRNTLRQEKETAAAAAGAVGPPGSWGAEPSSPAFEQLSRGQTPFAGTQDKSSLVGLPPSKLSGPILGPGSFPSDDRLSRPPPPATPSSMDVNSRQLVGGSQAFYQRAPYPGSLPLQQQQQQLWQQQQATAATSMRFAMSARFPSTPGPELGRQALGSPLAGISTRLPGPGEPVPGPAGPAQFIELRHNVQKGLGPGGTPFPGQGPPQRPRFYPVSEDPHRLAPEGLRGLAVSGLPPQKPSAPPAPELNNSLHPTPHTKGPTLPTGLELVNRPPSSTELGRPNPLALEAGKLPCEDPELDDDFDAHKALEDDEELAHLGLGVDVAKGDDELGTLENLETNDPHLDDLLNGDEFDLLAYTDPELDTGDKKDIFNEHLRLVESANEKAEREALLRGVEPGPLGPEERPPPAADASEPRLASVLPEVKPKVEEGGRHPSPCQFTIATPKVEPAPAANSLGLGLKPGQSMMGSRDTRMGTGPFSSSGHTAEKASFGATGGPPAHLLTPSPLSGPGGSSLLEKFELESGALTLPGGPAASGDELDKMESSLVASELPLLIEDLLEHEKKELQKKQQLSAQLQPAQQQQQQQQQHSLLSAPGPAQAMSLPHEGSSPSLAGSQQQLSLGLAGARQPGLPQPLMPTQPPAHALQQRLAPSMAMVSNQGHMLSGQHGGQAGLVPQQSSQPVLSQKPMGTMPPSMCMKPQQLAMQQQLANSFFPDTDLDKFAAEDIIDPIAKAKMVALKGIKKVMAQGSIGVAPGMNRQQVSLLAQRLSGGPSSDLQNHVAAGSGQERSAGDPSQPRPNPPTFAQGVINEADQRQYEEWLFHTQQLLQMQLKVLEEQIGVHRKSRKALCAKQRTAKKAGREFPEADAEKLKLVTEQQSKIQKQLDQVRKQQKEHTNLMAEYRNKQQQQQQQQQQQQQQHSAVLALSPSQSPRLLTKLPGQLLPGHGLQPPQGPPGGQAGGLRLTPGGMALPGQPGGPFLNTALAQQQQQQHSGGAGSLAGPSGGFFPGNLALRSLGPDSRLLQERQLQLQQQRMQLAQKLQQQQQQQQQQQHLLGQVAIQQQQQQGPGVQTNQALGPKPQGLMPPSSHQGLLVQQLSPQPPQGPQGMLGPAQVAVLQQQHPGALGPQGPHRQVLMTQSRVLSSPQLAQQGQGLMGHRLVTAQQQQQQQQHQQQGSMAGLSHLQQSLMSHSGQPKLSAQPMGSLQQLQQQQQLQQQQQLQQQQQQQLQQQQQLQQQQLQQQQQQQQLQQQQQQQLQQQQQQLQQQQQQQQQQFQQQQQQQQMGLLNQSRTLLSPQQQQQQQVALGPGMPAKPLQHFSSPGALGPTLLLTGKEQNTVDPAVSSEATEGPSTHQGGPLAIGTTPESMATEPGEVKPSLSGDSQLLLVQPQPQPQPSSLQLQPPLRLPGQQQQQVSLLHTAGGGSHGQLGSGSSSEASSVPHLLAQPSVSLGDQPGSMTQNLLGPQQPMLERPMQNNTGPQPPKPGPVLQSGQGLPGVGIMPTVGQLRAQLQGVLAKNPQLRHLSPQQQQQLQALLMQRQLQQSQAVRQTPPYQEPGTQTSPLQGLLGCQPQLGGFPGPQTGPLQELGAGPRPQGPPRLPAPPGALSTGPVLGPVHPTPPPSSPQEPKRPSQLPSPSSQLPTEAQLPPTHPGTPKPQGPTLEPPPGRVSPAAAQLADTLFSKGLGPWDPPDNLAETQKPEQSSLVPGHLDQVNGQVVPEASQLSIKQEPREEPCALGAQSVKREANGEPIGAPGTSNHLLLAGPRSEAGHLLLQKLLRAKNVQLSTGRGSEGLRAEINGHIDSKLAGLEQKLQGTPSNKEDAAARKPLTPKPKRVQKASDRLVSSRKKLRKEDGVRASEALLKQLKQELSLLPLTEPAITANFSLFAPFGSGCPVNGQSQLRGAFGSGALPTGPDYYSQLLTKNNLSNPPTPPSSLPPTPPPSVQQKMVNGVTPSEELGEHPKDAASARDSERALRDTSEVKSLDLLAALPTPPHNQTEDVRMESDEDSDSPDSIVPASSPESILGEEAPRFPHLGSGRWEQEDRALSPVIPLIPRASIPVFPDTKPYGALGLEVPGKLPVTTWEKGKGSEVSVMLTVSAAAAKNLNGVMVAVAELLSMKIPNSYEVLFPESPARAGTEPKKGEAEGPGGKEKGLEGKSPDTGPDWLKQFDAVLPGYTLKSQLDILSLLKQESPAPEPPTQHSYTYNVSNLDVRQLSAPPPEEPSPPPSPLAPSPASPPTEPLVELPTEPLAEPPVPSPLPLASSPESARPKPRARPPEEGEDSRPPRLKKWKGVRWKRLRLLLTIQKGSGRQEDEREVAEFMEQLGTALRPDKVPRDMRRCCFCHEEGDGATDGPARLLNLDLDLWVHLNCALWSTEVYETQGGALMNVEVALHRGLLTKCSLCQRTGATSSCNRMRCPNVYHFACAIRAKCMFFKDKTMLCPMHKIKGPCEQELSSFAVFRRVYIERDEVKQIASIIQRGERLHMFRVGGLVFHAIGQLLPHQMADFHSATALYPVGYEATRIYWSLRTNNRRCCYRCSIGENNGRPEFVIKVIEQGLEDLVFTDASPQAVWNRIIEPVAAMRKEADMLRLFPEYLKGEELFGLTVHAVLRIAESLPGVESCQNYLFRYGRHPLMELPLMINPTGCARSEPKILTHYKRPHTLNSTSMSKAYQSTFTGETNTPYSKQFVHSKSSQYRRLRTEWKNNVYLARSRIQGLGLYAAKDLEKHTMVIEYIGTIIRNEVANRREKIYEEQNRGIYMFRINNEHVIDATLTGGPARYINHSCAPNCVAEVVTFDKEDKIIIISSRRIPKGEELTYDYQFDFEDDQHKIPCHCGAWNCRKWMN
UniProt P04150: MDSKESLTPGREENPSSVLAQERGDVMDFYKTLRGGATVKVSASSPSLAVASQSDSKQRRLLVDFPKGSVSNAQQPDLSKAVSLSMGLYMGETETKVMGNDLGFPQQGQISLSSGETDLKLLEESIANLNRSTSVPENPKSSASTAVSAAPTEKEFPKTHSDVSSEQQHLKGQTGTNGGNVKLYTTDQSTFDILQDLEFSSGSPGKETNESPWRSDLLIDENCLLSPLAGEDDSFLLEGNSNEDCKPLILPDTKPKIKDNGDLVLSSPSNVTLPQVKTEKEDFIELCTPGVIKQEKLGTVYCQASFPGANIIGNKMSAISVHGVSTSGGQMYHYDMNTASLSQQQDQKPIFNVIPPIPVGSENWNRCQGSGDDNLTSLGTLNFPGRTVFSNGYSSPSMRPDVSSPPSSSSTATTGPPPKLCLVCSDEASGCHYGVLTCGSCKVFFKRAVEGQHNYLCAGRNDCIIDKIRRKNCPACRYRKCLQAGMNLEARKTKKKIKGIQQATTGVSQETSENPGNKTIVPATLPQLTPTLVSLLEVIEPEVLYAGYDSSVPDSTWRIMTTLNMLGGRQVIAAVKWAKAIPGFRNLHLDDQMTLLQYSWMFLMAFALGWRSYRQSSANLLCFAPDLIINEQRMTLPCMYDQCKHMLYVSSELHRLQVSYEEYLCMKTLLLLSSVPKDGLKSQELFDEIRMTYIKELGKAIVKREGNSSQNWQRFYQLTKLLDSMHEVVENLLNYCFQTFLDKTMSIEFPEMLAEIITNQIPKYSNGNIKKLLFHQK

Tests used:
[1] = molecular target: histone lysine methyltransferase KMT2D (human (endogenous in L363, MM1S and A549)) (UniProt O14686); experiment: co-IP; endogenous proteins; L363 cells cultured with or without 100 nM Dex for 30 min, lysed in RIPA buffer (0.1% SDS); anti-KMT2D or control IgG immunoprecipitates immunoblotted for KMT2D and GR
[2] = molecular target: histone lysine methyltransferase KMT2D (human (endogenous in L363, MM1S and A549)) (UniProt O14686); experiment: proximity ligation; endogenous proteins in fixed, permeabilised MM1S multiple myeloma cells, with or without 100 nM Dex for 30 min at 37 °C; rabbit anti-KMT2D and mouse anti-GR, Duolink probes; single antibodies as controls
[3] = molecular target: histone lysine methyltransferase KMT2D (human (endogenous in L363, MM1S and A549)) (UniProt O14686); experiment: proximity ligation; endogenous proteins in fixed, permeabilised A549 lung adenocarcinoma cells, with or without 100 nM Dex for 30 min at 37 °C; rabbit anti-KMT2D and mouse anti-GR, Duolink probes; single antibodies as controls

**Q.** Which binding [1] does the source give for “glucocorticoid receptor (from UniProt P04150 1-777)” here?
**A.** Its binding is “binds weakly”.

**Q.** And the binding [2]?
**A.** Its binding is “binds”.

**Q.** And the binding [3]?
**A.** Its binding is “binds”.
